# Data: the supplement of paper PMC9135407
# Values joined by “and” are separate entries in the source; they are usually repeats but may differ in a detail not shown here. Equal entries are not always repeated. Structures can show the parent of a compound that is named as a salt. ± gives the standard deviation of the averaged measurements. Some of the results follow. Part of the spread comes from offsets between plates or batches.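 Assay uses culture-activated primary human stellate myofibroblasts; lipid droplet recovery indicates inactivation. Measured: proportion of Hoechst-counted cells over a plate-specific Bodipy cutoff, duplicate wells, DMSO and nortriptyline as per-plate negative and positive controls. A hit scores, control-normalized, above the plate's top-tenth-percentile nortriptyline wells or ranks among its three best wells. Final well concentrations not reported.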
# Tested on: primary human hepatic stellate cells (donor 1)
# Assay: percent Bodipy-positive cells; higher = more lipid droplet accumulation
# Conditions: 48 h
# Description: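 Primary lipid accumulation screen in primary human hepatic stellate cell myofibroblasts (donor 1, passage 8) in 384-well plates. 100 nL of library compound was pin-transferred into 30 µL medium in duplicate, and cells were treated for 48 h. The 'Scaled' score combines distance from plate baseline, toxicity and reproducibility penalties, and is normalised to nortriptyline (positive) and DMSO (negative) controls on each plate. A hit is defined as scaled >0.85 or among the top 3 wells per plate.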
# [1] = library stock concentration: 1 mM
# [2] = library stock concentration: 3.33 mM
# [3] = library stock concentration: 10 mM
# [4] = library stock concentration: 6.8 mM
compound,measurement,setting,value
CC(=O)c1ncc([C@@H](O)[C@H](O)[C@H](O)CO)[nH]1 [2-Acetyl-5-tetrahydroxybutyl Imidazole],percent Bodipy-positive cells,[1],11.3 ± 1%
"CC(C)OC(=O)[C@H](C)N[P@](=O)(OC[C@H]1O[C@@H](n2ccc(=O)[nH]c2=O)[C@](C)(F)[C@@H]1O)Oc1ccccc1 [Sofosbuvir (PSI-7977, GS-7977)]",percent Bodipy-positive cells,[2],9.23 ± 4.5%
same,percent Bodipy-positive cells,[3],16.2 ± 7.3%
Clc1cnccn1 [2-Chloropyrazine],percent Bodipy-positive cells,,11.7 ± 0.14%
Nc1nc2c(ncn2[C@@H]2O[C@H](CO)[C@@H](O)[C@H]2O)c(=O)[nH]1 [Guanosine],percent Bodipy-positive cells,[2],10.9 ± 1.3%
same,percent Bodipy-positive cells,[3],26.9 ± 3.8%
CC(O)C(=O)O.CC(O)C(=O)O.CN1CCN(c2ccc3nc(-c4c(N)c5c(F)cccc5[nH]c4=O)[nH]c3c2)CC1 [Dovitinib (TKI-258) Dilactic Acid],percent Bodipy-positive cells,[2],95.69 ± 0.46%
"CCCCCC(=O)CC[C@@H]1[C@@H](CCCCCCC(=O)O)[C@@H](O)C[C@H]1O [13,14-dihydro-15-keto Prostaglandin F1.alpha.]",percent Bodipy-positive cells,[1],19.5 ± 3.5%
Cc1cc2c(cc1S(N)(=O)=O)S(=O)(=O)CCC2 [Meticrane],percent Bodipy-positive cells,,21.1 ± 0.72%
CCn1c2ccccc2c2cc(Nc3ccnc(NCCCN4CCOCC4)n3)ccc21,percent Bodipy-positive cells,[2],99.53 ± 0.66%
same,percent Bodipy-positive cells,[3],98.6 ± 2%
c1ccc(C(OC2CCN(CCCc3nn[nH]n3)CC2)c2ccccc2)cc1,percent Bodipy-positive cells,[1],20.1 ± 4.4%
CCCCCCc1ccc(O)cc1O.Nc1c2ccccc2nc2ccccc12 [Acrisorcin],percent Bodipy-positive cells,library stock concentration: 5.1 mM,72.6 ± 8.4%
same,percent Bodipy-positive cells,[3],88.2 ± 1.6%
O=C1[C@H](Cc2ccc(O)cc2)N2C(=O)CCN(C(=O)NCc3ccccc3)[C@H]2CN1Cc1cccc2ccccc12,percent Bodipy-positive cells,[2],15.4 ± 0.76%
same,percent Bodipy-positive cells,[3],44 ± 3.2%
CC/C(=C\C(=N\O)C(N)=O)C(C)[N+](=O)[O-] (stereo not drawn),percent Bodipy-positive cells,[1],9.07 ± 1.2%
CCCc1ccc(C(=O)Oc2ccc(C#N)cc2)cc1,percent Bodipy-positive cells,[3],27 ± 2.7%
CCCCc1ccc(N=CNO)c(C)c1,percent Bodipy-positive cells,[1],6.02 ± 0.67%
COC(=O)Nc1nc2cc(C(=O)c3ccccc3)ccc2[nH]1 [Mebendazol],percent Bodipy-positive cells,[4],26 ± 6%
COC(=O)Nc1nc2cc(C(=O)c3ccccc3)ccc2[nH]1 [Mebendazole],percent Bodipy-positive cells,,39.6 ± 8.5%
same,percent Bodipy-positive cells,[4],36.7 ± 9.7%
same,percent Bodipy-positive cells,[3],61.4% and 58.1%
CC1(C)S[C@@H]2[C@H](NC(=O)[C@H](NC(=O)N3CCNC3=O)c3ccccc3)C(=O)N2[C@H]1C(=O)O [Azlocillin sodium],percent Bodipy-positive cells,[3],36.5 ± 13%
CC1(C)S[C@@H]2[C@H](NC(=O)[C@H](NC(=O)N3CCNC3=O)c3ccccc3)C(=O)N2[C@H]1C(=O)O [Azlocillin sodium salt],percent Bodipy-positive cells,,9.97 ± 3%
same,percent Bodipy-positive cells,[2],13.7 ± 5.5%
same,percent Bodipy-positive cells,[3],22.4 ± 2.7%
N#CC(=Cc1ccc2[nH]ccc2c1)C(N)=C(C#N)C#N,percent Bodipy-positive cells,library stock concentration: 19.3 mM,65.4 ± 3.8%
NC(=O)c1cc[n+](CC2=C(C(=O)O)N3C(=O)[C@@H](NC(=O)[C@@H](c4ccccc4)S(=O)(=O)[O-])[C@H]3SC2)cc1 [Cefsulodin sodium],percent Bodipy-positive cells,library stock concentration: 3.6 mM,15.1 ± 7%
CC(C)c1ccc2oc3nc(N)c(C(=O)O)cc3c(=O)c2c1,percent Bodipy-positive cells,[3],5.26 ± 4.4%
CC#CCOC(=O)c1c(C)nc2sc3c(c2c1N)CCC(O)C3 (stereo not drawn),percent Bodipy-positive cells,[3],91.7 ± 1.6%
Cc1cn([C@H]2O[C@@H](CO)[C@H](O)[C@H]2F)c(=O)[nH]c1=O [Clevudine],percent Bodipy-positive cells,[2],8.17 ± 2.4%
same,percent Bodipy-positive cells,[3],9.6 ± 2.6%
"Cc1cn(C2C=CC(CO)O2)c(=O)[nH]c1=O (stereo not drawn) [2',3'-didehydro-3'-deoxythymidine]",percent Bodipy-positive cells,[3],36.4 ± 6%
NC1(C(=O)N[C@@H](CCO)c2ccc(Cl)cc2)CCN(c2ncnc3[nH]ccc23)CC1,percent Bodipy-positive cells,library stock concentration: 80 uM,3.17 ± 0.84%
same,percent Bodipy-positive cells,library stock concentration: 400 uM,3.01 ± 1.4%
same,percent Bodipy-positive cells,library stock concentration: 2 mM,4.45 ± 0.59%
same,percent Bodipy-positive cells,[2],21.5 ± 6.8%
same,percent Bodipy-positive cells,[3],28.3% and 25%
CCCCCC(O)C=CC1C(O)CC(=O)C1CC=CCCCC(=O)O (stereo not drawn) [8-iso Prostaglandin E2],percent Bodipy-positive cells,[1],13.7 ± 5.1%
CC(CCc1ccccc1)NCC(O)c1ccc(O)c(C(N)=O)c1 (stereo not drawn) [Labetalol HCl],percent Bodipy-positive cells,[2],17.1 ± 3.4%
same,percent Bodipy-positive cells,[3],66 ± 6.8%
CC(CCc1ccccc1)NCC(O)c1ccc(O)c(C(N)=O)c1 (stereo not drawn) [Labetalol hydrochloride],percent Bodipy-positive cells,,48.3 ± 2.2%
same,percent Bodipy-positive cells,[3],66.3% and 49.1%
CC(CCc1ccccc1)NCC(O)c1ccc(O)c(C(N)=O)c1 (stereo not drawn),percent Bodipy-positive cells,[3],49.25 ± 0.48%
CCOC(=O)[C@H](CCc1ccccc1)N[C@@H](C)C(=O)N1Cc2ccccc2C[C@H]1C(=O)O [Quinapril HCl],percent Bodipy-positive cells,,10.2 ± 2%
same,percent Bodipy-positive cells,[2],11.88 ± 0.082%
same,percent Bodipy-positive cells,[3],9.99 ± 2.9%
CCOC(=O)[C@H](CCc1ccccc1)N[C@@H](C)C(=O)N1Cc2ccccc2C[C@H]1C(=O)O [Quinapril hydrochloride],percent Bodipy-positive cells,[3],40.7 ± 18%
CCOC(=O)[C@H](CCc1ccccc1)N[C@@H](C)C(=O)N1Cc2ccccc2C[C@H]1C(=O)O,percent Bodipy-positive cells,[3],27.7 ± 4.8%
CC1CC(OC(=O)C(O)c2ccccc2)CC(C)(C)C1 (stereo not drawn),percent Bodipy-positive cells,[3],61.7 ± 1.7%
CC1CC(OC(=O)C(O)c2ccccc2)CC(C)(C)C1 (stereo not drawn) [Cyclandelate],percent Bodipy-positive cells,[2],13.2 ± 6.8%
same,percent Bodipy-positive cells,[3],49.2 ± 1.3%
"CCCCCC(=O)CCC1C(=O)C=CC1C/C=C\CCCC(=O)O (stereo not drawn) [13,14-dihydro-15-keto Prostaglandin J2]",percent Bodipy-positive cells,[1],7.45 ± 2.4%
CC[C@]1(O)C[C@@H]2CN(CCc3c([nH]c4ccccc34)[C@@](C(=O)OC)(c3cc4c(cc3OC)N(C=O)[C@H]3[C@@](O)(C(=O)OC)[C@H](OC(C)=O)[C@]5(CC)C=CCN6CC[C@]43[C@@H]65)C2)C1.O=S(=O)(O)O,percent Bodipy-positive cells,[3],91.5 ± 4.5%
COc1ccc(C(Cl)=C(c2ccc(OC)cc2)c2ccc(OC)cc2)cc1 [Chlorotrianisene],percent Bodipy-positive cells,,9.13 ± 0.44%
same,percent Bodipy-positive cells,library stock concentration: 5.3 mM,5.06 ± 1%
same,percent Bodipy-positive cells,[3],16.8 ± 6.7%

# Given as tab-separated lines: part of the list above.
compound	measurement	setting	value
CCn1c2ccccc2c2cc(Nc3ccnc(NCCCN4CCOCC4)n3)ccc21	percent Bodipy-positive cells	[2]	99.53 ± 0.66%
NC1(C(=O)N[C@@H](CCO)c2ccc(Cl)cc2)CCN(c2ncnc3[nH]ccc23)CC1	percent Bodipy-positive cells	library stock concentration: 2 mM	4.45 ± 0.59%
CCOC(=O)[C@H](CCc1ccccc1)N[C@@H](C)C(=O)N1Cc2ccccc2C[C@H]1C(=O)O [Quinapril HCl]	percent Bodipy-positive cells	[3]	9.99 ± 2.9%

# Random excerpt: 2 entries already listed, in no set order.
compound,measurement,setting,value
NC1(C(=O)N[C@@H](CCO)c2ccc(Cl)cc2)CCN(c2ncnc3[nH]ccc23)CC1,percent Bodipy-positive cells,library stock concentration: 400 uM,3.01 ± 1.4%
CC1(C)S[C@@H]2[C@H](NC(=O)[C@H](NC(=O)N3CCNC3=O)c3ccccc3)C(=O)N2[C@H]1C(=O)O [Azlocillin sodium salt],percent Bodipy-positive cells,[3],22.4 ± 2.7%
